The values that follow come from paper PMC10011588, “Conformational transitions and allosteric modulation in a heteromeric glycine receptor” (Nature Communications, 2023).

This assay has as its target zebrafish glycine receptor α1 subunit (ZF-α1GlyR), full length (zebrafish) (UniProt O93430). The experiment in a line: cryo-EM structure; αβGlyR-Geph-E sample co-expressed in Sf9 and co-purified in DDM, vitrified on graphene-oxide grids with 100 µM strychnine, 1 mM glycine, or 1 mM glycine and 20 µM ivermectin; no fiduciary marker.

Results are given in words; binding and its absence hold for the method and conditions named. Some results given as binding are weak or reduced against the parent protein; the word gives no strength.

B1: zebrafish glycine receptor α1 subunit (ZF-α1GlyR), full length (receptor, UniProt O93430 25-444, looked up)
chain: ARKAASPMPPSEFLDKLMGKVSGYDARIRPNFKGPPVNVTCNIFINSFGSIAETTMDYRVNIFLRQQWNDPRLAYSEYPDDSLDLDPSMLDSIWKPDLFFANEKGANFHEVTTDNKLLRISKNGNVLYSIRITLVLACPMDLKNFPMDVQTCIMQLESFGYTMNDLIFEWDEKGAVQVADGLTLPQFILKEEKDLRYCTKHYNTGKFTCIEARFHLERQMGYYLIQMYIPSLLIVILSWVSFWINMDAAPARVGLGITTVLTMTTQSSGSRASLPKVSYVKAIDIWMAVCLLFVFSALLEYAAVNFIARQHKELLRFQRRRRHLKEDEAGDGRFSFAAYGMGPACLQAKDGMAIKGNNNNAPTSTNPPEKTVEEMRKLFISRAKRIDTVSRVAFPLVFLIFNIFYWITYKIIRSEDIHKQ
modifications: N-glycan at N62
notes: glycine receptor α1 subunit, zebrafish, NCBI NP_571477.1, codon-optimised full-length gene; Four copies stand in the αβGlyR heteropentamer (4α:1β); The full-length gene was expressed; also called αGlyR; GlyRα1; source: Sf9 (ExpiSf9) cells, baculovirus (pFastBacDual, p10 promoter), co-expressed with βBGlyR and Geph-E; not shown: 8x His (after a thrombin site LVPRGS), C-terminal, kept
As for B1, the binding entry was “binds”.
